According to patent publication US20160046705A1 (Amgen, published 2016):

B1: 19D11 (antibody, V domains shown)
VH: EVQLVESGGGLVQPGGSLRLSCAASGFTFSSYDMHWVRQATGKGLEWVSAIGTAGDTYYAGSVKGRFTISRENAKNSLYLQMNSLRVGDTAVYYCARSWGEGNYYFYYGMDVWGQGTTVTVSS
VL: SYVLTQPPSVSVAPGQTARITCGGDNIGSISVHWYQQKPGQAPVLVVYDDSDRPSGIPERFSGSNSGNTATLTISWVEAGDEADYYCQVWDSSIDHPVLFGGGTKLTVL
B2: 27H6 (antibody, V domains shown)
VH: EVQLVESGGGLVQPGGSLRLSCAASGFTFSSYSMNWVRQAPGKGLEWVSYISSSGSSIYYADSVKGRFTISRDNAKNSLYLQMNSLRDEDTAVYYCARERYYGDTPFDYWGQGTLVTVSS
VL: DIVMTQTPLSLPVTPGEPASISCRSSQSLLNSVDGSTNLDWYLQKPGQSPQLLIYTLSYRASGVPDRFSGSGSGTDFTLKISRVEAEDVGVYYCMQRIEFPLTFGGGTKVEIK
notes: also called sclerostin antibody 27H6

Biological target: sclerostin (species not stated in the assay) (Homo sapiens (Human))
Experiment: co-immunoprecipitation of LRP4 and sclerostin in the presence of antibody

Binder | binding
B1 | binds
B2 | binds

No constants are given. Whether binding was seen depends on the method and setting. Binding seen in cells or lysates may run through a third protein. Binding can be weak; no strength is given.
